Among the data in paper PMC10816821 are binding values, retold here.

The target in this assay is ASC (pig (endogenous in PAMs)). Briefly: co-IP; PAMs lysed in RIPA buffer, precleared with protein A/G-agarose, primary antibody overnight at 4 °C, SDS-PAGE and blot; cells untreated, stimulated with APP, or pretreated with naringin (NAR) before APP; the precipitating antibody is not named.

No constants are given. Whether binding was seen depends on the method and setting. Binding seen in cells or lysates may run through a third protein. Binding can be weak; no strength is given.

B1: Caspase-1 (protein, UniProt Q9N2I1 1-404)
chain: MADKVLKEKRRLFVRSVAMGTINGLLDELLETRVLNQEEVEIVRGENATVMDKARALIDSVIRKGPQACQICINHICGDDPHLAGVLELSTGSQSGKCLTVQESQAVVPPFPAPQTVQDNPVKPASSEPRGSLKLCPPDIAQRLWKEKSAEIYPIMGKSIRTRLALIICNTEFENLPRRDGADVDIRDMKILLEDLGYSVDVRENLTASDMAIELKAFAARPEHKSSDSTFLVLMSHGIQAGICGKKYSEEVPDVLEVNTVFQILNTLNCPSLKDKPKVIIIQACRGEKQGVVWIKDSVGPSGNSSLLAAEDFEYDAIKKAHIEKDFIAFCSSTPDNVSWRHPLLGSLFIIKLIKILQEHAWSCGLEEIFRKVRFSFELADGRAQMPTAERVTLTRSFYLFPGH
With B1, the binding entry is recorded as “binds”.
